Source: PubChem BioAssay AID1671190 (National Center for Advancing Translational Sciences (NCATS), 2021)
In all, about 580,000 compounds went through this assay and about 6,100 (1.1%) were called active. The shares of active, inactive and inconclusive entries below differ from those in the screen. The call rests on the fitted dose curve; in most records, active means well fitted inhibition curve with a large enough effect; inconclusive means small, poorly fitted or top-dose-only effect, or another doubt; inactive means no such curve, though single readings can be large or run the other way. Potencies of inconclusive entries are doubtful fits and often do not repeat.
Potency means the concentration at half of the fitted maximal effect.

By UniProt entry, the sequences of proteins in these tests, tags left out. Where a name states a change or a piece, a line headed by the entry shows the natural chain unless it says otherwise.
UniProt P18054: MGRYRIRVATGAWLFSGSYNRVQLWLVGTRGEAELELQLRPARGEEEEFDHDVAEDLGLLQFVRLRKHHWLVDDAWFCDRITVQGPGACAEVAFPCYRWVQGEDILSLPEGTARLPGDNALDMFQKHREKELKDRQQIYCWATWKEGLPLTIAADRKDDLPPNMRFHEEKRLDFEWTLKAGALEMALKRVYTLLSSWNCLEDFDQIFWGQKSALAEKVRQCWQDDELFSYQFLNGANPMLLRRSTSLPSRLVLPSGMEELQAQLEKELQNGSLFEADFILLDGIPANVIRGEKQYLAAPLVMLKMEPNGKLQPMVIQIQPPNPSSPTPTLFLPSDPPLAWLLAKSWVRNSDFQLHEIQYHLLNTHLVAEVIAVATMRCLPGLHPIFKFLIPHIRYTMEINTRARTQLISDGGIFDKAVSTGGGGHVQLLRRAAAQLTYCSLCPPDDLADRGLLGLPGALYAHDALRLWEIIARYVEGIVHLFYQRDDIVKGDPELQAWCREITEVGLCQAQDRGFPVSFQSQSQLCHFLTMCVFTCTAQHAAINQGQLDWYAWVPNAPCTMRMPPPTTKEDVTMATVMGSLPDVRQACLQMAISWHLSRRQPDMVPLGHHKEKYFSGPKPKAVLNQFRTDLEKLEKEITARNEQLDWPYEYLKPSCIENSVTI

The compounds below were run against Polyunsaturated fatty acid lipoxygenase ALOX12 (Homo sapiens) (UniProt P18054) (assay: Primary qHTS assay for inhibitors of human arachidonate 12S-lipoxygenase (ALOX12): Round 2). Conditions: purified 12hLO, xylenol orange hydroperoxide absorbance; series mostly up to 108 µM.
Method in brief: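 Purified human 12hLO at 150 nM in 25 mM Hepes, 0.01% Triton X-100, pH 7.0, preincubated 15 min at room temperature with compound. Reaction started with 40 uM arachidonic acid, 30 min at room temperature. Hydroperoxide measured by Fe-xylenol orange, 573/405 nm absorbance ratio.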
`CCCc1nc2ccccc2c(C(=O)OCC(=O)N2CCc3ccccc32)c1CC` was tested, and the Potency was “inactive”.
For `CN1CC2(CCN(Cc3ccccc3C#N)CC2)CC1C(=O)N1CCOCC1` (stereo not drawn), the Potency was “inactive”.
For `Cc1nnc(N/N=C/c2cccc(OCc3ccc(Cl)c(Cl)c3)c2)n1N`, the Potency was active: 17.8 µM.
With `O=C(NC(=S)Nc1cccc(O)c1)C1CCCCC1` the Potency was inconclusive: 79.4 µM [inhibitor, partial curve, poor fit].
For `CC1(C(=O)NCc2ccc(Cl)cc2)CCN1C(=O)Cc1ccc(Cl)cc1Cl` (stereo not drawn), the Potency was inconclusive: 70.8 µM [inhibitor, partial curve, poor fit].
`COC(=O)c1ccc(C2CC(=O)Nc3sc(C(=O)Nc4cccc(C(F)(F)F)c4)c(C)c32)cc1` (stereo not drawn) was tested, and the Potency was “inactive”.
For `N#Cc1cc(Oc2cccc3cccnc23)c(-n2nnc3ccccc32)cc1C#N`, the Potency was inconclusive: 5.62 µM [inhibitor, full curve, poor fit].
For `CCN(CC)C(=O)CN1CCCN(C(=O)c2cc3ccccc3n2C)CC1`, the Potency was inconclusive: 79.4 µM [inhibitor, single point].
With `Cc1cccc(Nc2ccc3ccccc3c2)c1` the Potency was inconclusive: 44.7 µM [inhibitor, partial curve, poor fit].
In the case of `COCCNC(=S)N1CCc2cc(OC)c(OC)cc2C1COc1cc(C)cc(C)c1` (stereo not drawn), the Potency is reported as inconclusive: 44.7 µM [inhibitor, partial curve, poor fit].
With `N#CC1=C(N)Oc2c(O)cc3ccccc3c2C1c1ccsc1` (stereo not drawn) the Potency was active: 44.7 µM.
For `Cc1ccc(-c2noc([C@@H]3C[C@H](NC(=O)CC(C)(C)C)CN3C)n2)cc1`, the Potency was inconclusive: 39.8 µM [inhibitor, full curve].
With `COc1ccccc1/C=C/C(=O)NC(=S)N(C)C1CCCCC1` the Potency was inconclusive: 39.8 µM [inhibitor, partial curve, poor fit].
In the case of `CC(C)CNc1ccc2c(n1)C(C)(C(=O)NCCc1cnc[nH]1)CN(Cc1ccccc1)C2` (stereo not drawn), the Potency is reported as “inactive”.
`O=C(c1cc2ccccc2o1)N(Cc1ccco1)Cc1cccs1` was tested, and the Potency was inconclusive: 39.8 µM [inhibitor, partial curve, poor fit].
In the case of `Cc1ccc2c(c1)[nH]c1c(N3CCN(Cc4ccccc4)CC3)ncnc12`, the Potency is reported as “inactive”.
In the case of `CN(C)c1ccc(C(=O)N[C@H]2C[C@@H](c3nc(-c4ccc5c(c4)OCO5)no3)N(C)C2)cc1`, the Potency is reported as inconclusive: 100 µM [inhibitor, partial curve, poor fit].
In the case of `COc1ccc2c(c1)c(C1=C(c3c[nH]c4ccccc34)C(=O)NC1=O)cn2CCCN(C)C`, the Potency is reported as inconclusive: 48.5 µM [inhibitor, single point].
